For at least one compound, name, drawing or mass did not settle the structure.
Molecular target: JAK2 (Homo sapiens (Human), UniProt O60674)
Assay: JAK biochemical HTRF enzyme assay, JAK2
Details: ratio JAK2 IC50 / JAK1 IC50
Procedure: The ability of compounds to inhibit the activity of JAK1, JAK2, JAK3, and Tyk2 was measured using a recombinant purified GST-tagged catalytic domain for each enzyme (InVitrogen/Life Technologies/ThermoFisher Scientific Inc., Waltham, Mass., USA; catalogue numbers: M4290(JAK1), M4290(JAK2), M4290(JAK3), M4290(Tyk2)) in an HTRF format biochemical assay.
Subsequent reagent additions employed an Agilent™ Bravo™ liquid handling system (Aligent Technologies, Santa Clara, Calif., USA). […] After equilibration, 2 μL of 10×ATP in 1× assay buffer was added to initiate the kinase reaction and the plates were shaken and then incubated at ambient temperature for 120 minutes. […] After normalization to untreated controls, the percent inhibition of the HTRF signal at each compound concentration was calculated. The plot of percent inhibition versus the log of compound concentration was fit with a 4-parameter dose response equation to calculate IC50 values.

Amino acid sequences for entries named in this document (tags omitted). Residues count along the entry.
UniProt O60674, 849-1124: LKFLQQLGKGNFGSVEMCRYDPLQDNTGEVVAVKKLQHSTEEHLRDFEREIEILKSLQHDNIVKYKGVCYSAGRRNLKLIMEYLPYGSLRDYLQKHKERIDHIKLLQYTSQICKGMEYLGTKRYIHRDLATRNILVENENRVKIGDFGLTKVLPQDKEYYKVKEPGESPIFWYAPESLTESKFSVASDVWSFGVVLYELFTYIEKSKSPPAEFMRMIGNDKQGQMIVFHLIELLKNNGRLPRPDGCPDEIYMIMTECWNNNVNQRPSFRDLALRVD

Compound	JAK2/1
N#C[C@H]1CCOC[C@@H]1n1cc(C(N)=O)c(Nc2ccc(OC(F)(F)F)cc2)n1 [Comp. Ex-3, reference compound]	8
N#Cc1ccc(Nc2nn([C@H]3COCC[C@@H]3C#N)cc2C(N)=O)cc1 [Comp. Ex-4, reference compound]	8

— patent US10766883B2, “Aminopyrazoles as janus kinase inhibitors” (Merck Sharp & Dohme Corp., priority 2016, dated 2020)
